Test results reported in the supplement of paper PMC9877034.
Counter-ions that a name gives are not always drawn. Whole data set: some 1,000 compounds, median “cFRET/donor change relative to DMSO, normalised to beta-lapachone positive control (supercomplex I-IV assembly)” near 0.18, cut for the lowest 2% near -1. The list shows a part of the results.

Tested on: C2C12 (NDUFB8-AcGFP / COX8A-DsRed-Monomer FRET reporter)
Test: cFRET/donor change relative to DMSO, normalised to beta-lapachone positive control (supercomplex I-IV assembly) (fraction of beta-lapachone effect); higher = more respiratory supercomplex assembly
Details: 40 µM; 24 h
Procedure: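 Cells were treated with 40 uM compound for 24 h and imaged on an IN Cell Analyzer 6000. Corrected FRET was divided by donor signal (cFRET/donor) and measured in two replicate experiments. The score is (mean cFRET/donor of compound - mean DMSO) / (mean beta-lapachone 40 uM - mean DMSO). Compounds flagged for prominent cell death, abnormal morphology or decreased cell number were excluded.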

SMILES | cFRET/donor change
CCCCCCCC/C=C\CCCCCCCC(=O)NCCO [N-Oleoylethanolamine] | 0.0922
NC[C@@H](O)c1ccc(O)c(O)c1 [L(-)-Norepinephrine bitartrate] | 0.167
Nc1nc(Cl)nc2c1ncn2[C@@H]1O[C@H](COP(=O)(O)OP(=O)(O)OP(=O)(O)O)[C@H](O)C1O (some centres not stated) [2-Chloroadenosine triphosphate tetrasodium] | 0.486
Oc1cc2c(cc1O)CN(C(=S)NCCc1ccc(Cl)cc1)CCC2 [Capsazepine] | 3.43
CCCCCCC(=O)OC1CC(C)(C)NC(C)(C)C1 [TMPH hydrochloride] | -0.101
Cc1cc(Cn2cnc3c2C[C@@H](C(=O)O)N(C(=O)C(c2ccccc2)c2ccccc2)C3)ccc1N | 0.272
O=C1Cc2c([nH]c3ccc(Br)cc23)-c2ccccc2N1 [Kenpaullone] | -0.309
CNCCCC12CCC(c3ccccc31)c1ccccc12 [Maprotiline hydrochloride] | 0.00698
Cc1cc(Cl)ccc1OCCCC(=O)NO [Droxinostat] | 0.131
O=C(NCCN1CCOCC1)c1ccc(Cl)cc1 [Moclobemide] | -0.177
CCCC(CCC)C(=O)O[C@H]1C[C@H]2CC[C@@H](C1)[N+]2(C)C [Anisotropine methyl bromide] | 0.0542
CC(C)NC[C@H](O)COc1cccc2ccccc12 [(S)-Propranolol hydrochloride] | 0.157
O=c1c(-c2ccc(O)cc2)coc2cc(O)ccc12 [Daidzein] | 0.201
C[C@H]1O[C@@H](n2cc(F)c(=O)[nH]c2=O)[C@H](O)[C@@H]1O [5-fluoro-5'-deoxyuridine] | 0.0814
O=C(O)C=C1CCCc2ccccc2C1O (configuration not stated) | 0.355
CC(=O)CCCCn1c(=O)c2c(ncn2C)n(C)c1=O [Pentoxifylline] | 0.111
CCOC(=O)c1ncn2c1CN(C)C(=O)c1cc(F)ccc1-2 [Flumazenil] | 0.392
O=NN(CCCl)C(=O)NCCCl [Carmustine] | 0.379
NCC(O)(CS(=O)(=O)O)c1ccc(Cl)cc1 (configuration not stated) [2-Hydroxysaclofen] | 0.0593
CC[C@H](NC(=O)c1c(C)c(-c2ccccc2)nc2ccccc12)c1ccccc1 | 0.321
CC(C(=O)O)c1cccc(C(=O)c2ccccc2)c1 (configuration not stated) [Ketoprofen] | 0.186
Nc1nc(N)c2nc(CNc3ccc(C(=O)N[C@@H](CCC(=O)O)C(=O)O)cc3)cnc2n1 [Aminopterin] | 0.216
CN1[C@@H]2CC[C@H]1CC(OC(=O)c1c[nH]c3ccccc13)C2 (some centres not stated) [3-Tropanyl-indole-3-carboxylate hydrochloride] | 0.435
CCCCCCCCCCCCCCCCCCOCC(COP(=O)([O-])OCC[N+](C)(C)C)OC (configuration not stated) | 0.501
CCCC1O[C@@H]2C[C@H]3[C@@H]4CCC5=CC(=O)C=C[C@]5(C)[C@H]4[C@@H](O)C[C@]3(C)[C@]2(C(=O)CO)O1 (some centres not stated) [Budesonide] | 0.132
COc1ccc2[nH]c([S@@+]([O-])Cc3ncc(C)c(OC)c3C)nc2c1 [Esomeprazole magnesium dihydrate] | 0.951

SMILES | cFRET/donor change
CCCCCN(CCCCC)C(=O)C(CCC(=O)O)NC(=O)c1ccc(Cl)c(Cl)c1 (configuration not stated) [Lorglumide sodium] | 0.132
Nc1nc2c(ncn2COCCO)c(=O)[nH]1 [Acyclovir] | 0.178
NCCSSCCN [Cystamine dihydrochloride] | 0.0633
Cc1cc(NC2CCCCC2)nc(-n2nc(C)cc2C)n1 | 0.569
NC(CCCP(=O)(O)O)C(=O)O (stereo not drawn) [D(-)-2-Amino-5-phosphonopentanoic acid] | 0.0246
C=C[C@@]1(C)CC(=O)[C@]2(O)[C@@]3(C)[C@@H](O)CCC(C)(C)[C@@H]3[C@H](O)[C@H](OC(C)=O)[C@@]2(C)O1 [Forskolin] | 0.315
Nc1c2c(nc3ccccc13)CCCC2 [9-Amino-1,2,3,4-tetrahydroacridine hydrochloride] | -0.0778
C[C@]12C[C@H](O)[C@H]3[C@@H](CCC4=CC(=O)CC[C@@]43C)[C@@H]1CC[C@@H]2C(=O)CO [Corticosterone] | 0.221
O=C1NCCc2[nH]c(-c3ccncc3)cc21 | -0.0657
COC(=O)C1=C(C)NC(C)=C(C(=O)OC2CCCN(Cc3ccccc3)C2)C1c1cccc([N+](=O)[O-])c1 (configuration not stated) [Benidipine hydrochloride] | 0.367
CCc1ccc2c(-c3cccc(Cl)c3)nc(=O)n(CC)c2n1 | -0.0171
COC(=O)C1=C(C)NC(C)=C([N+](=O)[O-])C1c1ccccc1C(F)(F)F (racemic) | 0.544
c1ccc(-c2ccccn2)nc1 [2,2'-Bipyridyl] | -0.00296
COc1ccccc1N1CCN(CCN(C(=O)c2ccc(F)cc2)c2ccccn2)CC1 [p-MPPF dihydrochloride] | 0.296
O=C1CN(/N=C/c2ccc(-c3ccc([N+](=O)[O-])cc3)o2)C(=O)N1 [Dantrolene sodium] | 0.452
O=C(c1ccc2c(c1)OCCO2)N1CCCCC1 | 0.193
NC(N)=NC(=O)c1nc(Cl)c(N2CCCCCC2)nc1N [5-(N,N-hexamethylene)amiloride] | 0.351
CC1=C(CC(=O)O)c2cc(F)ccc2/C1=C\c1ccc(S(C)(=O)=O)cc1 [Sulindac sulfone] | 0.35
CC(=O)Oc1cc(C(C)C)c(OCCN(C)C)cc1C [Moxisylyte hydrochloride] | 0.564
O=C(CCSCc1ccco1)NNC(=O)N1Cc2ccccc2Oc2ccc(Cl)cc21 | 0.36
CC1=C(/C=C/C(C)=C/C=C/C(C)=C/C(=O)Nc2ccc(O)cc2)C(C)(C)CCC1 [Retinoic acid p-hydroxyanilide] | 0.885
CN(C)CCC=C1c2ccccc2C=Cc2ccccc21 [Cyclobenzaprine hydrochloride] | 0.462
NS(=O)(=O)c1cc2c(cc1Cl)NCNS2(=O)=O [Hydrochlorothiazide] | -0.0537
CC1CCN=C(N)S1 (racemic) [(±)-AMT hydrochloride] | 0.00413
Cc1nc(N=Nc2ccc(C(=O)O)cc2)c(COP(=O)(O)O)c(C=O)c1O | 0.439
Oc1ccc(O)cc1 [Hydroquinone] | 1.03

Three structures from above, sorted by heavy-atom count, descending:
SMILES | cFRET/donor change
O=C(CCSCc1ccco1)NNC(=O)N1Cc2ccccc2Oc2ccc(Cl)cc21 | 0.36
O=C(c1ccc2c(c1)OCCO2)N1CCCCC1 | 0.193
NC[C@@H](O)c1ccc(O)c(O)c1 [L(-)-Norepinephrine bitartrate] | 0.167
